# Measured values reported in the supplement of paper PMC12889115.
# The list shows a part of the results. Values are raw readings; no control value is given beside them.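 In the initial screen, polymyxin B was used at a concentration that permeabilizes Salmonella's outer membrane but not its inner membrane. Maximum growth was set by DMSO wells with or without polymyxin B. Since plates varied, data were ranked per plate, and compounds giving the lowest OD600 advanced as hits.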
# Tested on: Salmonella enterica serovar Typhimurium SL1344
# Experiment: bacterial growth OD600 after 18 h with compound and polymyxin B; higher = more bacterial growth (less inhibition)
# Details: 50 µM, Mueller-Hinton broth
Structure (SMILES),bacterial growth OD600 (polymyxin B 1 µg/mL),bacterial growth OD600 (polymyxin B 0.75 µg/mL)
CN1N=C(C(=O)N2CCCC(CNC(=O)c3cccc4ccccc34)C2)CCC1=O (stereo not given),0.957,–
CCOC(=O)C1CCCN(C(=O)c2coc(COc3ccccc3)n2)C1 (stereo not given),0.931,–
CN(CC1CCOCC1)C(=O)c1csc2nc(-c3ccc(F)cc3)cn12,–,0.767
COc1ccccc1C1CN(C)Cc2ccccc2O1 (stereo not given),–,0.873
O=C(NCCC1COc2ccccc2O1)c1ccc(NCC2CCOCC2)nc1 (stereo not given),0.94,–
CN(Cc1ccsc1)C(=O)c1cc(COc2ccc3c(c2)OCO3)[nH]n1,0.794,–
CSCCCNC(=O)c1cn(CCCc2ccccc2)nn1,0.788,–
COCCn1cnc2cc(NC(=O)C3CCCCC3)cc(C(=O)NCC3CCCN(C(C)C)C3)c21 (stereo not given),–,0.852
O=C(COc1ccccc1Cl)NC1CC(=O)N(Cc2ccc(F)cc2)C1 (stereo not given),0.881,–
COC(=O)[C@@H]1CCCN1C(=O)Cc1ccc(N2CCC(NCc3ccc4c(c3)OCO4)CC2)cc1,–,0.804

# Complete entries as entered above:
# CSCCCNC(=O)c1cn(CCCc2ccccc2)nn1 in the list: bacterial growth OD600 (polymyxin B 1 µg/mL): 0.788
# CN(CC1CCOCC1)C(=O)c1csc2nc(-c3ccc(F)cc3)cn12 in the list: bacterial growth OD600 (polymyxin B 0.75 µg/mL): 0.767
